Source: the supplement of paper PMC10849652
Some of the results follow.

By UniProt entry, the sequences of proteins in these tests, tags left out. Where a name states a change or a piece, a line headed by the entry shows the natural chain unless it says otherwise.
UniProt P20339: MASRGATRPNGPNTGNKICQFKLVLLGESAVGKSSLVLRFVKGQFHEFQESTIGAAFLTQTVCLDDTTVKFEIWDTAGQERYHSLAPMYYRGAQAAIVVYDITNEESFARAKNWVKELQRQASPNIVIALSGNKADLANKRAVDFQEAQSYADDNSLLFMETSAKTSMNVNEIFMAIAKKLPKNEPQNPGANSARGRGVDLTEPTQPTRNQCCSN
UniProt Q9UKM9: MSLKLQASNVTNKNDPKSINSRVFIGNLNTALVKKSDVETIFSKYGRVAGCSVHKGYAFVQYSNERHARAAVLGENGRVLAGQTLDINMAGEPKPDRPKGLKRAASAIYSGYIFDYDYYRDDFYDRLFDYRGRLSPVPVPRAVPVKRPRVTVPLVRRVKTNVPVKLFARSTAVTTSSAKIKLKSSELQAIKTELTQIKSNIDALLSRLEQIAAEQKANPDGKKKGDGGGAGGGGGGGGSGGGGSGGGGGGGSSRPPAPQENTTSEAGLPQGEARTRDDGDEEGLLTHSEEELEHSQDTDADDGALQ
UniProt Q86X10: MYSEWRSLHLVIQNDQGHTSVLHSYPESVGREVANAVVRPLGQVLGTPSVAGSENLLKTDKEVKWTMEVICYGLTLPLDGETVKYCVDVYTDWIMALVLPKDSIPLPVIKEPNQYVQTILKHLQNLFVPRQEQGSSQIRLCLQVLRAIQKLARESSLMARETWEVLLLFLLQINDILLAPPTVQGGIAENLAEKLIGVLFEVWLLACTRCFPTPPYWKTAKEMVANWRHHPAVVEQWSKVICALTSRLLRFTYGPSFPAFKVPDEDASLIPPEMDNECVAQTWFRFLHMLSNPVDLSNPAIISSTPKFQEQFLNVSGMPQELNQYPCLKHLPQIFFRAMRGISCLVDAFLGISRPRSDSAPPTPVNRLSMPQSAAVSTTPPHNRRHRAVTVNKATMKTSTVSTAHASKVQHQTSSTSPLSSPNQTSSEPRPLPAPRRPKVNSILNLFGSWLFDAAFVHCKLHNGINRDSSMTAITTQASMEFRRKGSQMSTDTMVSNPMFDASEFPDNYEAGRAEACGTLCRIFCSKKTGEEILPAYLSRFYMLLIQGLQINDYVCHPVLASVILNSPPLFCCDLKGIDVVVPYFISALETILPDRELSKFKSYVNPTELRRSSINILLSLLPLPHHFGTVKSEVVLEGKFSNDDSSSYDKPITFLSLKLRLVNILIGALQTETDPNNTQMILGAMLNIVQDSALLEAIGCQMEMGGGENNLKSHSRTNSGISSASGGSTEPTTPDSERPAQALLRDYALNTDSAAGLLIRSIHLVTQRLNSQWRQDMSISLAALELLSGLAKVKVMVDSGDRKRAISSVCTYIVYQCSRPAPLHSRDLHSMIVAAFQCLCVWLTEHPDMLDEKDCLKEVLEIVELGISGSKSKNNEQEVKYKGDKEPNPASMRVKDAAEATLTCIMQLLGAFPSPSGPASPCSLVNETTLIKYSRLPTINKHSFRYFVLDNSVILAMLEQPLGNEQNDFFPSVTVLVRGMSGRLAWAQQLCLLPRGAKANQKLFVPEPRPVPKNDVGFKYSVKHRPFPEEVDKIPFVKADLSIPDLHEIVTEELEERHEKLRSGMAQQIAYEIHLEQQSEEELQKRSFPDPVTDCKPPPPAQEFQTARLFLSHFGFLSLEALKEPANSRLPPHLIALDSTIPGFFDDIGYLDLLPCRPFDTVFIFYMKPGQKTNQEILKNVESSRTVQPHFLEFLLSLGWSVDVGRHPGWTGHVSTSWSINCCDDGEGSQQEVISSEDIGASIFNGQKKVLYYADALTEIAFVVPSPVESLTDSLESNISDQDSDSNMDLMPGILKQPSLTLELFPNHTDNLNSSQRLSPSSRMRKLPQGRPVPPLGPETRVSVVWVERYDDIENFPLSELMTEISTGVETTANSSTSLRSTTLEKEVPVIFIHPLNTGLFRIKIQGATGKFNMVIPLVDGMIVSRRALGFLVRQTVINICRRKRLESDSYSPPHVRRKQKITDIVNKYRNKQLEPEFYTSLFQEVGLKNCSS
UniProt Q9UJ41, whole entry, looked up: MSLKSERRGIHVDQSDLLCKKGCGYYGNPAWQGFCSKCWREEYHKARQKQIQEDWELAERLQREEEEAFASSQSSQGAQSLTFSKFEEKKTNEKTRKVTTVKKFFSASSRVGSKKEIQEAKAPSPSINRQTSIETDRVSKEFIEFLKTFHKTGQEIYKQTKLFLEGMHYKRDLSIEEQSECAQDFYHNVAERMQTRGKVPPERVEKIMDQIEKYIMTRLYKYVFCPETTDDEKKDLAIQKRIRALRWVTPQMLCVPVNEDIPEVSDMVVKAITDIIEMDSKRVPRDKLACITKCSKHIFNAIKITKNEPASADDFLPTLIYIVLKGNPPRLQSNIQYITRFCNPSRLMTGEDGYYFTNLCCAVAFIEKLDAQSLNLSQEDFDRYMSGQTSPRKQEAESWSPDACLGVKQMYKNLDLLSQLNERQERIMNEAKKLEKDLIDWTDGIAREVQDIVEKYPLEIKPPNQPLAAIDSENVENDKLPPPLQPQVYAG
UniProt P61020: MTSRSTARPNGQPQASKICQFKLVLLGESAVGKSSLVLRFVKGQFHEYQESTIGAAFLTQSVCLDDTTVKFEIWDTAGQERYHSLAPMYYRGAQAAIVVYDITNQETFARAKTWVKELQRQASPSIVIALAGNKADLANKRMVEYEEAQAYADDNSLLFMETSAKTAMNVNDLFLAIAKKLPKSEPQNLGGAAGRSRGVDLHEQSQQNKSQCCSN
UniProt Q92930: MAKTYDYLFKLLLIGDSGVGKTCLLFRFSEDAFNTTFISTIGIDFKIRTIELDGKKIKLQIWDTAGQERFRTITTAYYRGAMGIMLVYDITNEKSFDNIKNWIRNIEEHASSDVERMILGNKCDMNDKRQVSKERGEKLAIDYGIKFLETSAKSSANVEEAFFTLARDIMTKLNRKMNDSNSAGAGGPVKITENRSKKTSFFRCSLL
UniProt Q8WUD1: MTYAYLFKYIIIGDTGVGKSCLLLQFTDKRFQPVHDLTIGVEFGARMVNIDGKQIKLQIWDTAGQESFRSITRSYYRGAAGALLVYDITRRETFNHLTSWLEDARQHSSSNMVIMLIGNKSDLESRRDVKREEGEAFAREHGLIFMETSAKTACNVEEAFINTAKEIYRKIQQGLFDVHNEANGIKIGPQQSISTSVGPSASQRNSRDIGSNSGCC
UniProt Q06609, whole entry, looked up: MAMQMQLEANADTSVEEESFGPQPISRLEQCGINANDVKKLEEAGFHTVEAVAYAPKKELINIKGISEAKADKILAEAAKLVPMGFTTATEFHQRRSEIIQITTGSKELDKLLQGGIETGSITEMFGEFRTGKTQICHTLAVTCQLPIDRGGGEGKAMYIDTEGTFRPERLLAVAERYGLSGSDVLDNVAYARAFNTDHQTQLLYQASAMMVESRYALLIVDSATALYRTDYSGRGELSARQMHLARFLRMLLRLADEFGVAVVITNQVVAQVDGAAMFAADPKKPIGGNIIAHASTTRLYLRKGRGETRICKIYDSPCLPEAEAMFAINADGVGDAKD
UniProt Q15042: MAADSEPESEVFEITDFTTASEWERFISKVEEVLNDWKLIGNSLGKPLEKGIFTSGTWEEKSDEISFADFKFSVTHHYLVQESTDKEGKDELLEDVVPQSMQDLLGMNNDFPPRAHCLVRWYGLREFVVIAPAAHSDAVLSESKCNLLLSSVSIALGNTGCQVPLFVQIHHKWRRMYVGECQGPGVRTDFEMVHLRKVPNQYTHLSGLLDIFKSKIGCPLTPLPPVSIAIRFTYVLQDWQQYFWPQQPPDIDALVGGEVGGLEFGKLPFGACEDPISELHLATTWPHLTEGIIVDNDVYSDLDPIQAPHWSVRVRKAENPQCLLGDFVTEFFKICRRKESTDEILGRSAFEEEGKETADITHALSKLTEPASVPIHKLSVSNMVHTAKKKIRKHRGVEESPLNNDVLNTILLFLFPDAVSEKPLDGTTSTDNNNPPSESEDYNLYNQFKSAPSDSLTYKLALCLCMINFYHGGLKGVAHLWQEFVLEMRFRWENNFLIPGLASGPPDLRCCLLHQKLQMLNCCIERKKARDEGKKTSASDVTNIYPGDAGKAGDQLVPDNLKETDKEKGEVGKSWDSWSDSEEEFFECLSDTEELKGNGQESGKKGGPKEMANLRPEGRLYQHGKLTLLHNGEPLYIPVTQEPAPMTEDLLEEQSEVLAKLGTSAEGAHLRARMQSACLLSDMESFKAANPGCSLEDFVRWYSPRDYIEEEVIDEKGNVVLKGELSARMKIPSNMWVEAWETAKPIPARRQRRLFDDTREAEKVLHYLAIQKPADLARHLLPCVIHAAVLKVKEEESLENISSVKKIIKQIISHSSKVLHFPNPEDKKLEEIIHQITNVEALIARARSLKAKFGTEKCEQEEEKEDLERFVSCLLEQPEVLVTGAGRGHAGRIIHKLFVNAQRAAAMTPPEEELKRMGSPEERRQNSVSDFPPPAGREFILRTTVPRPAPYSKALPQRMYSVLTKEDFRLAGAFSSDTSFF
UniProt P61224: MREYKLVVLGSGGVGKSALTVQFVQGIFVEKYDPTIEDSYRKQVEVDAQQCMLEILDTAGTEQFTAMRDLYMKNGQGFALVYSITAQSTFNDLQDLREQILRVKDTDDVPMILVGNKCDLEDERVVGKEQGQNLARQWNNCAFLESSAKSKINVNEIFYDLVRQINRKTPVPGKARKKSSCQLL
UniProt P78406: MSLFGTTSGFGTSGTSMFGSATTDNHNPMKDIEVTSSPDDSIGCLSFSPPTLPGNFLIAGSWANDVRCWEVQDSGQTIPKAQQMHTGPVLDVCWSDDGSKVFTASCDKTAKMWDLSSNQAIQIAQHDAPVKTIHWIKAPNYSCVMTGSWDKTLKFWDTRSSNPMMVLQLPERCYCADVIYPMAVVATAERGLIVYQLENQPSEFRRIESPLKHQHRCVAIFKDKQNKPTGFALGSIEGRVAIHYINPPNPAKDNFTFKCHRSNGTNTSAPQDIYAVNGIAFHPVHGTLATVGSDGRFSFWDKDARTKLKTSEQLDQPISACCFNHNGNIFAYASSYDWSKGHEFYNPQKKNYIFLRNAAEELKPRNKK
UniProt Q3YEC7: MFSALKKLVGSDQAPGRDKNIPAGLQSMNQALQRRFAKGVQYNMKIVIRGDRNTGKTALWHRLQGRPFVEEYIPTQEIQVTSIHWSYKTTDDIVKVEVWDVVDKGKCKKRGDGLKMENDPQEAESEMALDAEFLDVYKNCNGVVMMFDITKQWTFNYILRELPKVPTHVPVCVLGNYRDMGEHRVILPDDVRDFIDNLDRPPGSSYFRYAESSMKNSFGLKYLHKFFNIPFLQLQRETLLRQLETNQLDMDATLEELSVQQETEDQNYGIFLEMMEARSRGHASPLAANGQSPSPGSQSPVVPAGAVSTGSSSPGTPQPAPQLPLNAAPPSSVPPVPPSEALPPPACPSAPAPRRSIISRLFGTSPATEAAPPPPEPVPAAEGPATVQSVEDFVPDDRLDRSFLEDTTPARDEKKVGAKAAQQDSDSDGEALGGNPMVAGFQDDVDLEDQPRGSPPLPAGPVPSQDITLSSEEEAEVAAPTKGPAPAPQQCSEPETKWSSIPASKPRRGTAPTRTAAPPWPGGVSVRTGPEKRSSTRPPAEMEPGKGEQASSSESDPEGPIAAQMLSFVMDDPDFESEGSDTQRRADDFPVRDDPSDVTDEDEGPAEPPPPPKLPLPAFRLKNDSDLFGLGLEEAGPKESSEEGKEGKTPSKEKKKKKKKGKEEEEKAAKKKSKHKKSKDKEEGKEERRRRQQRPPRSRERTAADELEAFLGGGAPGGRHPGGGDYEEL

Key:
Assay in all cases: log2 fold change, soluble protein after heating vs DMSO (PISA); higher = thermal stabilisation; K562 lysate, 10 uM; active = over 0.2 and 3.5 SD of the protein, either way, in both replicates (recomputed)
vemurafenib = compound: CCCS(=O)(=O)Nc1ccc(F)c(C(=O)c2c[nH]c3ncc(-c4ccc(Cl)cc4)cc23)c1F [vemurafenib]
Method in brief: (§1)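 Values give the log-two fold change in thermal stability against solvent controls, from duplicates. Crude K562 extract at 1 mg/mL protein, made by dounce homogenisation in PBS pH 7.4 with 1 mM MgCl2, was treated with 10 μM compound for 30 min. After 3 min heating across 48°C-58°C, aliquots were pooled, adjusted to 0.5% NP-40 at 4°C and centrifuged at 21,000xg for 90 min. The supernatant was measured by TMTpro 16plex LC-MS/MS with channel sums equalised.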

[1] = compound: CCCS(=O)(=O)Nc1ccc(F)c(C(=O)c2c[nH]c3ncc(Cl)cc23)c1F
Method in brief: as §1

barasertib = compound: CCN(CCCOc1ccc2c(Nc3cc(CC(=O)Nc4cccc(F)c4)[nH]n3)ncnc2c1)CCOP(=O)(O)O [barasertib]
Method in brief: as §1

[2] = compound: CC[C@@H]1C(=O)N(C)c2cnc(Nc3ccc(C(=O)NC4CCN(C)CC4)cc3OC)nc2N1C1CCCC1
Method in brief: as §1

volasertib = compound: CC[C@@H]1C(=O)N(C)c2cnc(Nc3ccc(C(=O)N[C@H]4CC[C@H](N5CCN(CC6CC6)CC5)CC4)cc3OC)nc2N1C(C)C [volasertib]
Method in brief: as §1

[3] = compound: CCn1c(C(=O)N(C2CC2)C2CC2)cc2c3c(ncn3C)c(Nc3cc(C)n(C)n3)nc21
Method in brief: as §1

[4] = compound: CCn1cc(-c2ccnc3[nH]c(-c4cccc(CN(C)C)c4)cc23)c(-c2ccc(NC(=O)N(C)C)cc2)n1
Method in brief: as §1

[5] = compound: CN1CCC(CNc2ccc3ncc(-c4cccc(OC(F)(F)F)c4)n3n2)CC1
Method in brief: as §1

saracatinib = compound: CN1CCN(CCOc2cc(OC3CCOCC3)c3c(Nc4c(Cl)ccc5c4OCO5)ncnc3c2)CC1 [saracatinib]
Method in brief: as §1

sotrastaurin = compound: CN1CCN(c2nc(C3=C(c4c[nH]c5ccccc45)C(=O)NC3=O)c3ccccc3n2)CC1 [sotrastaurin]
Method in brief: as §1

Measured: log2 fold change

RAB5A (UniProt P20339)
inactive: vemurafenib -0.007 | [1] 0.012 | barasertib 0.02 | [2] 0.066 | volasertib 0.036 | [3] -0.074 | [4] -0.003 | [5] 0.001 | saracatinib 0.034 | sotrastaurin 0.017

R3HCC1L, A0A384DVK4
inactive: vemurafenib 0.191 | [1] -0.017 | barasertib 0.048 | [2] -0.087 | volasertib -0.008 | [3] -0.003 | [4] 0.261 | [5] 0.019 | saracatinib 0.024 | sotrastaurin 0

RALY (UniProt Q9UKM9)
inactive: vemurafenib -0.008 | [1] 0.019 | barasertib -0.035 | [2] -0.123 | volasertib -0.027 | [3] -0.038 | [4] 0.009 | [5] -0.035 | saracatinib -0.017 | sotrastaurin 0.011

PXN isoform 3 (UniProt P49023)
inactive: vemurafenib -0.008 | [1] 0.061 | barasertib -0.071 | [2] 0.02 | volasertib 0.023 | [3] 0.008 | [4] 0.001 | [5] 0.027 | saracatinib 0.033 | sotrastaurin -0.046

RALGAPB (UniProt Q86X10)
inactive: vemurafenib 0.044 | [1] 0.016 | barasertib 0.103 | [2] -0.008 | volasertib -0.023 | [3] -0.013 | [4] -0.09 | [5] 0.07 | saracatinib 0.017 | sotrastaurin 0.032

RAB3A (UniProt P20336)
inactive: vemurafenib -0.074 | [1] -0.095 | barasertib 0.007 | [2] -0.052 | volasertib -0.158 | [3] 0.033 | [4] 0 | [5] 0.014 | saracatinib 0.006 | sotrastaurin -0.035

RANBP9 (UniProt Q96S59)
inactive: vemurafenib 0.01 | [1] 0.01 | barasertib 0.01 | [2] 0.002 | volasertib 0.004 | [3] -0.004 | [4] -0.013 | [5] 0.026 | saracatinib 0.012 | sotrastaurin 0.027

RABGEF1 isoform 3 (UniProt Q9UJ41)
inactive: vemurafenib -0.014 | [1] 0 | barasertib -0.023 | [2] -0.037 | volasertib 0.004 | [3] -0.014 | [4] -0.06 | [5] -0.023 | saracatinib -0.062 | sotrastaurin 0

RABGGTA (UniProt Q92696)
inactive: vemurafenib -0.008 | [1] 0.007 | barasertib 0.039 | [2] 0.002 | volasertib -0.037 | [3] 0.003 | [4] -0.087 | [5] 0.08 | saracatinib -0.008 | sotrastaurin -0.027

RAB5B (UniProt P61020)
inactive: vemurafenib 0.012 | [1] 0.005 | barasertib 0.061 | [2] 0.055 | volasertib 0.065 | [3] -0.046 | [4] -0.116 | [5] 0.011 | saracatinib 0.002 | sotrastaurin 0.037

RAB23 (UniProt Q9ULC3)
inactive: vemurafenib 0.026 | [1] 0.023 | barasertib 0.002 | [2] -0.066 | volasertib -0.064 | [3] -0.055 | [4] -0.076 | [5] 0.072 | saracatinib -0.025 | sotrastaurin 0.076

RAB6A isoform 4 (UniProt P20340)
inactive: vemurafenib 0.05 | [1] -0.04 | barasertib 0.056 | [2] 0.122 | volasertib 0.037 | [3] -0.023 | [4] -0.067 | [5] 0.028 | saracatinib 0.027 | sotrastaurin -0.004

RAB8B (UniProt Q92930)
inactive: vemurafenib -0.137 | [1] 0 | barasertib -0.036 | [2] 0.028 | volasertib -0.036 | [3] 0.007 | [4] 0.252 | [5] -0.142 | saracatinib 0.08 | sotrastaurin -0.024

RACK1 (UniProt P63244)
inactive: vemurafenib -0.041 | [1] 0 | barasertib -0.012 | [2] -0.052 | volasertib -0.064 | [3] -0.002 | [4] 0.042 | [5] -0.025 | saracatinib -0.014 | sotrastaurin -0.025

RAD23B (UniProt P54727)
inactive: vemurafenib 0.002 | [1] -0.02 | barasertib 0.057 | [2] 0.024 | volasertib 0.024 | [3] -0.034 | [4] -0.007 | [5] 0.03 | saracatinib -0.007 | sotrastaurin -0.006

PYGB (UniProt P11216)
inactive: vemurafenib -0.014 | [1] 0.014 | barasertib 0.001 | [2] -0.154 | volasertib 0.006 | [3] -0.004 | [4] 0.061 | [5] -0.035 | saracatinib 0.033 | sotrastaurin 0.004

RABGAP1L isoform 3 (UniProt Q5R372)
inactive: vemurafenib -0.008 | [1] -0.004 | barasertib -0.018 | [2] -0.006 | volasertib -0.028 | [3] -0.011 | [4] -0.079 | [5] 0.059 | saracatinib 0.017 | sotrastaurin 0.002

PXMP4 (UniProt Q9Y6I8)
inactive: vemurafenib 0.343 | [1] 0.114 | barasertib 0.04 | [2] -0.035 | volasertib -0.039 | [3] 0.064 | [4] -0.246 | [5] 0.006 | saracatinib 0.036 | sotrastaurin 0.025

Quoted at random: 2 records from the list.
RAB6A isoform 4 (UniProt P20340)
inactive: vemurafenib 0.05 | [1] -0.04 | barasertib 0.056 | [2] 0.122 | volasertib 0.037 | [3] -0.023 | [4] -0.067 | [5] 0.028 | saracatinib 0.027 | sotrastaurin -0.004

RANBP9 (UniProt Q96S59)
inactive: vemurafenib 0.01 | [1] 0.01 | barasertib 0.01 | [2] 0.002 | volasertib 0.004 | [3] -0.004 | [4] -0.013 | [5] 0.026 | saracatinib 0.012 | sotrastaurin 0.027

(further entries)

RAB11B (UniProt Q15907)
inactive: vemurafenib 0 | [1] -0.057 | barasertib 0.174 | [2] 0.019 | volasertib 0.007 | [3] -0.006 | [4] -0.104 | [5] 0.076 | saracatinib -0.011 | sotrastaurin 0.009

RANBP2 (UniProt P49792)
inactive: vemurafenib -0.031 | [1] 0.015 | barasertib 0.043 | [2] -0.022 | volasertib -0.048 | [3] 0.026 | [4] -0.019 | [5] -0.031 | saracatinib 0.018 | sotrastaurin 0.015

RAB2B (UniProt Q8WUD1)
inactive: vemurafenib -0.006 | [1] 0.014 | barasertib 0.025 | [2] 0.046 | volasertib 0.008 | [3] -0.023 | [4] 0.002 | [5] 0.032 | saracatinib 0.003 | sotrastaurin -0.049

RAD51 (UniProt Q06609)
inactive: vemurafenib 0.061 | [1] 0.023 | barasertib 0.172 | [2] 0.007 | volasertib -0.046 | [3] -0.022 | [4] 0.129 | [5] 0.026 | saracatinib 0.056 | sotrastaurin -0.025

RAB3GAP1 (UniProt Q15042)
inactive: vemurafenib 0.028 | [1] 0.027 | barasertib 0.008 | [2] -0.056 | volasertib -0.063 | [3] 0.007 | [4] -0.034 | [5] -0.088 | saracatinib -0.001 | sotrastaurin -0.007

PYCR3 (UniProt Q53H96)
inactive: vemurafenib -0.003 | [1] 0 | barasertib 0.045 | [2] -0.011 | volasertib 0.015 | [3] -0.012 | [4] 0.002 | [5] 0.004 | saracatinib -0.001 | sotrastaurin -0.024

RAB5C isoform 2 (UniProt P51148)
inactive: vemurafenib 0.025 | [1] -0.018 | barasertib -0.01 | [2] 0.044 | volasertib 0.006 | [3] -0.016 | [4] -0.082 | [5] 0.092 | saracatinib 0.035 | sotrastaurin -0.008

RAP1B (UniProt P61224)
inactive: vemurafenib 0.006 | [1] 0.008 | barasertib 0.054 | [2] 0.061 | volasertib 0.018 | [3] -0.037 | [5] -0.035 | saracatinib 0.002 | sotrastaurin 0.005
active: [4] 0.372

RAF1 isoform 2 (UniProt P04049)
inactive: [1] -0.142 | barasertib 0.068 | [2] -0.159 | volasertib -0.083 | [3] -0.029 | [4] -0.028 | [5] -0.037 | saracatinib -0.014 | sotrastaurin -0.041
active: vemurafenib 0.739

RAE1 (UniProt P78406)
inactive: vemurafenib -0.017 | [1] -0.021 | barasertib -0.051 | [2] 0.04 | volasertib -0.081 | [3] 0.018 | [5] 0.131 | saracatinib 0.039 | sotrastaurin 0.044
active: [4] -0.355

RABL6 (UniProt Q3YEC7)
inactive: vemurafenib -0.062 | [1] 0.006 | barasertib 0.023 | [2] 0.064 | volasertib 0.013 | [3] 0 | [4] -0.041 | [5] 0.027 | saracatinib 0.002 | sotrastaurin 0.005
